Experimental data from the supplement of paper PMC8728848.
The other results are listed elsewhere or left out.

Experiments:
Assay in all cases: glycan array binding signal (z-score within array); higher = stronger binding
Conditions in all cases: glycan notation: IUPAC condensed, linker removed
[1] = molecular target: GalNAc(b1-4)GlcNAc(b1-2)Man
Outline: (§1)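 Columns mapping to the same glycan were averaged after glycan names were converted to IUPAC-condensed notation. The data come from 3228 arrays in the Consortium for Functional Glycomics database, limited to those with an available protein sequence. Binding is reported as a within-array Z-score averaged across arrays of one protein sequence and across linkers.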

[2] = molecular target: GalNAc(b1-4)GlcNAc(b1-2)Man(a1-3)[GalNAc(b1-4)GlcNAc(b1-2)Man(a1-6)]Man(b1-4)GlcNAc(b1-4)GlcNAc
Outline: as §1

[3] = molecular target: GalNAc(b1-4)GlcNAc(b1-3)GalNAc(b1-4)GlcNAc
Outline: as §1

GalNAc(b1-4)GlcNAc6S = molecular target: GalNAc(b1-4)GlcNAc6S
Outline: as §1

GalNAc(b1-6)GalNAc = molecular target: GalNAc(b1-6)GalNAc
Outline: as §1

GalNAc3S(b1-4)GlcNAc = molecular target: GalNAc3S(b1-4)GlcNAc
Outline: as §1

GalNAc3S(b1-4)GlcNAc3S = molecular target: GalNAc3S(b1-4)GlcNAc3S
Outline: as §1

[4] = molecular target: GalNAc3S(b1-4)[Fuc(a1-3)]GlcNAc
Outline: as §1

GalNAc4S6S(b1-4)GlcNAc = molecular target: GalNAc4S6S(b1-4)GlcNAc
Outline: as §1

GalNAc6S(b1-4)GlcNAc = molecular target: GalNAc6S(b1-4)GlcNAc
Outline: as §1

Glc(a1-4)Glc = molecular target: Glc(a1-4)Glc
Outline: as §1

[5] = molecular target: Glc(a1-4)Glc(a1-4)Glc(a1-4)Glc
Outline: as §1

Glc(a1-6)Glc(a1-6)Glc = molecular target: Glc(a1-6)Glc(a1-6)Glc
Outline: as §1

[6] = molecular target: Glc(a1-6)Glc(a1-6)Glc(a1-6)Glc
Outline: as §1

Glc(b1-4)Glc = molecular target: Glc(b1-4)Glc
Outline: as §1

Glc(b1-6)Glc = molecular target: Glc(b1-6)Glc
Outline: as §1

GlcA(b1-3)Gal = molecular target: GlcA(b1-3)Gal
Outline: as §1

GlcA(b1-3)GlcNAc = molecular target: GlcA(b1-3)GlcNAc
Outline: as §1

GlcA(b1-6)Gal = molecular target: GlcA(b1-6)Gal
Outline: as §1

[7] = molecular target: GlcA3S(b1-3)Gal(b1-4)GlcNAc(b1-2)Man
Outline: as §1

[8] = molecular target: GlcA3S(b1-3)Gal(b1-4)GlcNAc(b1-3)Gal(b1-4)Glc
Outline: as §1

[9] = molecular target: GlcNAc(a1-3)Gal(b1-4)GlcNAc
Outline: as §1

[10] = molecular target: GlcNAc(a1-4)Gal(b1-3)GlcNAc
Outline: as §1

[11] = molecular target: GlcNAc(a1-4)Gal(b1-4)GalNAc
Outline: as §1

[12] = molecular target: GlcNAc(a1-4)Gal(b1-4)GlcNAc
Outline: as §1

[13] = molecular target: GlcNAc(a1-4)Gal(b1-4)GlcNAc(b1-3)Gal(b1-4)Glc
Outline: as §1

[14] = molecular target: GlcNAc(a1-4)Gal(b1-4)GlcNAc(b1-3)Gal(b1-4)GlcNAc
Outline: as §1

[15] = molecular target: GlcNAc(a1-4)Gal(b1-4)GlcNAc(b1-3)Gal(b1-4)GlcNAc(b1-3)Gal(b1-4)GlcNAc
Outline: as §1

[16] = molecular target: GlcNAc(a1-4)Gal(b1-4)GlcNAc(b1-3)Gal(b1-4)[Fuc(a1-3)]GlcNAc(b1-3)Gal(b1-4)[Fuc(a1-3)]GlcNAc
Outline: as §1

[17] = molecular target: GlcNAc(a1-6)Gal(b1-4)GlcNAc
Outline: as §1

[18] = molecular target: GlcNAc(b1-2)Gal(b1-3)GalNAc
Outline: as §1

[19] = molecular target: GlcNAc(b1-2)Man(a1-3)[GlcNAc(b1-2)Man(a1-6)]Man(b1-4)GlcNAc(b1-4)GlcNAc
Outline: as §1

[20] = molecular target: GlcNAc(b1-2)Man(a1-3)[GlcNAc(b1-2)Man(a1-6)]Man(b1-4)GlcNAc(b1-4)[Fuc(a1-6)]GlcNAc
Outline: as §1

[21] = molecular target: GlcNAc(b1-2)Man(a1-3)[GlcNAc(b1-4)][GlcNAc(b1-2)Man(a1-6)]Man(b1-4)GlcNAc(b1-4)GlcNAc
Outline: as §1

[22] = molecular target: GlcNAc(b1-2)Man(a1-3)[GlcNAc(b1-4)][GlcNAc(b1-2)Man(a1-6)]Man(b1-4)GlcNAc(b1-4)[Fuc(a1-6)]GlcNAc
Outline: as §1

[23] = molecular target: GlcNAc(b1-2)[GlcNAc(b1-4)]Man(a1-3)[GlcNAc(b1-2)Man(a1-6)]Man(b1-4)GlcNAc(b1-4)GlcNAc
Outline: as §1

[24] = molecular target: GlcNAc(b1-2)[GlcNAc(b1-4)]Man(a1-3)[GlcNAc(b1-4)][GlcNAc(b1-2)Man(a1-6)]Man(b1-4)GlcNAc(b1-4)GlcNAc
Outline: as §1

[25] = molecular target: GlcNAc(b1-2)[GlcNAc(b1-4)]Man(a1-3)[GlcNAc(b1-4)][GlcNAc(b1-2)[GlcNAc(b1-6)]Man(a1-6)]Man(b1-4)GlcNAc(b1-4)GlcNAc
Outline: as §1

[26] = molecular target: GlcNAc(b1-2)[GlcNAc(b1-4)]Man(a1-3)[GlcNAc(b1-4)][GlcNAc(b1-2)[GlcNAc(b1-6)]Man(a1-6)]Man(b1-4)GlcNAc(b1-4)[Fuc(a1-6)]GlcNAc
Outline: as §1

[27] = molecular target: GlcNAc(b1-2)[GlcNAc(b1-6)]Man(a1-6)[GlcNAc(b1-2)Man(a1-3)]Man(b1-4)GlcNAc(b1-4)GlcNAc
Outline: as §1

[28] = molecular target: GlcNAc(b1-2)[GlcNAc(b1-6)]Man(a1-6)[GlcNAc(b1-2)Man(a1-3)]Man(b1-4)GlcNAc(b1-4)[Fuc(a1-6)]GlcNAc
Outline: as §1

[29] = molecular target: GlcNAc(b1-2)[GlcNAc(b1-6)]Man(a1-6)[GlcNAc(b1-4)][GlcNAc(b1-2)Man(a1-3)]Man(b1-4)GlcNAc(b1-4)GlcNAc
Outline: as §1

GlcNAc(b1-3)Fuc = molecular target: GlcNAc(b1-3)Fuc
Outline: as §1

GlcNAc(b1-3)Gal = molecular target: GlcNAc(b1-3)Gal
Outline: as §1

[30] = molecular target: GlcNAc(b1-3)Gal(b1-3)GalNAc
Outline: as §1

B1: SJCP3842 (Schistosoma japonicum) (protein)
chain: MFKMRIINLVNISTVLLLINLLQTKSRLVGKENGFMLTVSIYGAQLSDKMTSVPVSWTIDYEDPEKSAFKKLVTDSCDTFSEYVKSQIPKGSVDGQCTSHIFQRPGSGSGVSISLTLSFIYVDVTQPDTVALKTELEKHFANFVTIHSHKITQAQFRINQKAIVIPTGDKDAIDGSKWKIIAIIALVALAIVVIGGFIYICVK
glycan array binding signal (z-score) [1]: -0.994
glycan array binding signal (z-score) [2]: 0.2
glycan array binding signal (z-score) [3]: -0.383
glycan array binding signal (z-score) (GalNAc(b1-4)GlcNAc6S): -0.403
glycan array binding signal (z-score) (GalNAc(b1-6)GalNAc): -0.244
glycan array binding signal (z-score) (GalNAc3S(b1-4)GlcNAc): 0.48
glycan array binding signal (z-score) (GalNAc3S(b1-4)GlcNAc3S): 0.932
glycan array binding signal (z-score) [4]: -0.457
glycan array binding signal (z-score) (GalNAc4S6S(b1-4)GlcNAc): 1.07
glycan array binding signal (z-score) (GalNAc6S(b1-4)GlcNAc): 0.489
glycan array binding signal (z-score) (Glc(a1-4)Glc): 0.209
glycan array binding signal (z-score) [5]: 1.31
glycan array binding signal (z-score) (Glc(a1-6)Glc(a1-6)Glc): -0.503
glycan array binding signal (z-score) [6]: -0.322
glycan array binding signal (z-score) (Glc(b1-4)Glc): -0.571
glycan array binding signal (z-score) (Glc(b1-6)Glc): 1.58
glycan array binding signal (z-score) (GlcA(b1-3)Gal): 0.657
glycan array binding signal (z-score) (GlcA(b1-3)GlcNAc): -0.284
glycan array binding signal (z-score) (GlcA(b1-6)Gal): 0.262
glycan array binding signal (z-score) [7]: 1.44
glycan array binding signal (z-score) [8]: -1.05
glycan array binding signal (z-score) [9]: 0.844
glycan array binding signal (z-score) [10]: -0.429
glycan array binding signal (z-score) [11]: -0.224
glycan array binding signal (z-score) [12]: -0.911
glycan array binding signal (z-score) [13]: -0.888
glycan array binding signal (z-score) [14]: -0.28
glycan array binding signal (z-score) [15]: 2.47
glycan array binding signal (z-score) [16]: 0.814
glycan array binding signal (z-score) [17]: -0.744
glycan array binding signal (z-score) [18]: -0.99
glycan array binding signal (z-score) [19]: -0.795
glycan array binding signal (z-score) [20]: 0.864
glycan array binding signal (z-score) [21]: -1.12
glycan array binding signal (z-score) [22]: -0.224
glycan array binding signal (z-score) [23]: -0.27
glycan array binding signal (z-score) [24]: -0.062
glycan array binding signal (z-score) [25]: 0.218
glycan array binding signal (z-score) [26]: 0.364
glycan array binding signal (z-score) [27]: -0.597
glycan array binding signal (z-score) [28]: -0.217
glycan array binding signal (z-score) [29]: -0.547
glycan array binding signal (z-score) (GlcNAc(b1-3)Fuc): 0.401
glycan array binding signal (z-score) (GlcNAc(b1-3)Gal): -1.01
glycan array binding signal (z-score) [30]: -0.211
